Assay results taken from PubChem BioAssay AID1347076 (National Center for Advancing Translational Sciences (NCATS), 2019).
The campaign covered roughly 400,000 compounds. About 13,000 (3.2%) were called active. Inconclusive means that the source gave no clear call. Such entries were picked first, then a sample of the others. Calls come from the whole dose curve; as a rule, active = well fitted cell-killing curve with a large enough effect; inconclusive = small, poorly fitted or top-dose-only effect, or effect the other way; inactive = flat fitted curve, though single readings scatter. Potencies of inconclusive entries are doubtful fits and often do not repeat.

Assay: qHTS assay for MDR1-selective chemotherapeutics: Primary screen using the drug-selected MDR subline cells KB-V1; note: nearly all actives have a fitted effect of over 60% in size
Settings: KB-V1 MDR cells viability, CellTiter-Glo, 72 h; activity change, negative = cytotoxicity: at 46.1 µM (top of the series)
Method in brief: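 Drug-selected KB-V1 cells, grown in DMEM lacking phenol red with 10% FBS, receive compound titrations; after three days at 37 degrees C, surviving cell ATP is quantified by CellTiter-Glo luminescence and responses normalized and curve-fitted.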
% is set by controls: 0 for no effect and ±100 for the full control effect; potency is the fitted concentration of half-maximal effect.

Compound | Potency | activity change, negative = cytotoxicity
O=C(NCCn1cc(SCc2ccc(F)cc2)c2ccccc21)c1cccs1 | inconclusive: 20.6 µM [cytotoxic, single point] | –
CCN(CC)c1nc2c(c(=O)[nH]c(=O)n2C)n1CCCc1ccccc1 | inconclusive: 20.6 µM [cytotoxic, single point] | –
CC(=O)c1ccc(NS(=O)(=O)c2ccccc2)cc1 | – | inactive: 3.01%
Cc1ccc(Cn2ccc(=O)c(OCc3c(Cl)cccc3Cl)c2C)cc1 | inconclusive: 18.4 µM [cytotoxic, single point] | –
CCOc1ccccc1NC(=O)C1CCN(S(C)(=O)=O)CC1 | – | inactive: 3.79%
O=C(CSc1nccn1Cc1ccccc1)NCc1ccccc1 | inconclusive: 14.6 µM [cytotoxic, partial curve, poor fit] | –
C/C(=N\OCC(=O)N/N=C/c1ccc(C)cc1O)c1cccs1 | inconclusive: 29.1 µM [cytotoxic, single point] | –
COC(=O)[C@@]12C[C@@H](CC(=O)N3CCC(c4ccccc4)CC3)C(=O)N(CCc3ccc(OC)c(OC)c3)C1=CCC(C)(C)C2 | inconclusive: 23.1 µM [cytotoxic, partial curve] | –
CCSc1nc2cc(C(=O)OC)ccc2c(=O)n1CC | inconclusive: 29.1 µM [cytotoxic, single point] | –
CSc1ccccc1OCc1cc(C(=O)N2CCSCC2)no1 | inconclusive: 2.91 µM [cytotoxic, partial curve, poor fit] | –
CC(Oc1ccc(F)cc1)C(=O)Nc1cc(S(=O)(=O)N2CCCCC2)ccc1N1CCOCC1 (stereo unspecified) | inconclusive: 9.2 µM [cytotoxic, partial curve, poor fit] | –
CCC(C(=O)Nc1ccc(C)c(Cl)c1)n1c(=O)c(-c2ccccc2NC(C)=O)nc2ccccc21 (stereo unspecified) | inconclusive: 18.4 µM [cytotoxic, single point] | –
COC(=O)CSc1ccc(S(=O)(=O)N2CCOCC2)cc1[N+](=O)[O-] | inconclusive: 29.1 µM [rising, single point] | –
c1cnc2c(C3NCCc4c3[nH]c3ccccc43)cccc2c1 (stereo unspecified) | inconclusive: 20.6 µM [cytotoxic, partial curve, poor fit] | –
O=[N+]([O-])c1ccc(N/N=C/c2ccccc2)c(F)c1 | inconclusive: 20.6 µM [cytotoxic, partial curve, poor fit] | –
Cc1c(Cl)cccc1NC(=S)NCc1ccc(F)cc1 | inconclusive: 3.26 µM [rising, partial curve, poor fit] | –
CCOC(=O)c1sc(=S)n(C)c1NC(=O)c1ccc(C(C)(C)C)cc1 | inconclusive: 29.1 µM [cytotoxic, single point] | –
Cc1nc2nc(C(F)(F)F)[nH]c2nc1C | – | inactive: 3.13%
O=C1Nc2ccc(Br)cc2/C1=C/C1CC=CCC1 (stereo unspecified) | – | inactive: -12.4%
CC(C)(C)OC(=O)N1CCC(CC2CC(c3ccccc3)=NO2)(C(=O)NCc2ccccc2)CC1 (stereo unspecified) | – | inactive: -11.1%
COc1cc(CNCCSc2nnnn2C)ccc1OCc1ccc(Cl)cc1Cl | – | inactive: 0%
CCCn1c(=O)n(C)c(=O)c2c(SCC(=O)NCC(c3ccccc3)N(C)C)nc(CC(C)C)nc21 (stereo unspecified) | inconclusive: 2.91 µM [cytotoxic, partial curve, poor fit] | –
O=[N+]([O-])c1cc(S(=O)(=O)Nc2ccccc2)ccc1Nc1ccccc1 | inconclusive: 29.1 µM [cytotoxic, single point] | –
CCCCNC(=O)C1(C)CCCCN1Cc1ccc(OCc2ccccc2)cc1 (stereo unspecified) | active: 14.6 µM | –

Laid out differently: 3 of the compounds above
COC(=O)[C@@]12C[C@@H](CC(=O)N3CCC(c4ccccc4)CC3)C(=O)N(CCc3ccc(OC)c(OC)c3)C1=CCC(C)(C)C2
  Potency: inconclusive: 23.1 µM [cytotoxic, partial curve]
CCSc1nc2cc(C(=O)OC)ccc2c(=O)n1CC
  Potency: inconclusive: 29.1 µM [cytotoxic, single point]
CSc1ccccc1OCc1cc(C(=O)N2CCSCC2)no1
  Potency: inconclusive: 2.91 µM [cytotoxic, partial curve, poor fit]

Further results follow:

Compound | Potency | activity change, negative = cytotoxicity
CC(=O)N1CCc2cc(S(=O)(=O)NC3CCCc4ccccc43)ccc21 (stereo unspecified) | inconclusive: 14.1 µM [cytotoxic, single point] | –
CN(Cc1nc(-c2ccc(Cl)cc2)no1)C(=O)CCN1C(=O)[C@H]2CC=CC[C@H]2C1=O | inconclusive: 18.4 µM [cytotoxic, partial curve] | –
CC(C(=O)Nc1ccc2c(c1)OCO2)N(C)CC(=O)Nc1ccc(Cl)cc1 (stereo unspecified) | active: 23.1 µM | –
CN1C(=O)/C(=C/c2cc3c(cc2Br)OCO3)NC1=S | inconclusive: 0.731 µM [rising, partial curve, poor fit] | –
Cc1n[nH]c(=S)n1/N=C/c1ccccc1 | – | inactive: -0.195%
Cc1ccc(NC(=O)CSc2nnc(-c3cnccn3)n2Cc2ccco2)cc1 | active: 7.31 µM | –
COc1ccc(-c2ccc3c(c2)c(Sc2ccccc2)c(-c2ccccc2)n3C)cn1 | – | inactive: 9.03%
O=C(Nc1cccnc1)C1(c2ccccc2)CCCC1 | inconclusive: 0.0092 µM [rising, full curve, poor fit] | –
CCOC(=O)CN(C(=O)COc1nc(-c2ccccc2)cc(C)c1C#N)c1cccc(OC)c1 | inconclusive: 2.59 µM [cytotoxic, full curve, poor fit] | –
O=C(NCc1cccc(Cl)c1)c1ccc2nc(N3CCOCC3)sc2c1 | inconclusive: 0.326 µM [rising, full curve] | –
COCCCN(C(=O)c1ccccc1F)c1nc(-c2ccc(OC)cc2)cs1 | inconclusive: 29.1 µM [cytotoxic, single point] | –
CCC(=O)Nc1nnc(-c2cccs2)s1 | – | inactive: 0%
CC(C)C(NC(=O)CN1C(=O)c2cccc3cccc1c23)C(C)C | inconclusive: 7.31 µM [cytotoxic, partial curve, poor fit] | –
Cn1c(=O)c2c(nc(NCCc3ccccc3)n2CC(=O)NCCc2ccccc2)n(C)c1=O | – | inactive: -4.68%
Cc1ccc(C(=O)NC(=S)Nc2ccc(Oc3ccc(Cl)cc3)cc2)cc1 | – | inactive: -5.62%
Cc1cccc(NC(=O)N[C@@H](C)C(=O)O)c1 | – | inactive: 13.1%
O=c1[nH]c2ccccc2c(O)c1-c1ccccc1[N+](=O)[O-] | – | inactive: 12.6%
Cc1cc(C(=O)NCc2ccc3c(c2)OCO3)n(-c2ccccc2)n1 | – | inactive: -2.97%
COc1ccc(/C=N/NC(=O)c2nnn(-c3nonc3N)c2CN(C)C2CCCCC2)cc1 | – | inactive: 9.5%
O=C(Nc1cccnc1)C1Cc2c(-c3cccc(F)c3)ccnc2O1 (stereo unspecified) | – | inactive: -29.9%
On1onc2c3cc(-c4ccccc4)nc3ccc21 | active: 14.6 µM | –
C(=N\Nc1nc2ccccc2[nH]1)/c1ccc2ncccc2c1 | inconclusive: 2.91 µM [cytotoxic, full curve, poor fit] | –
Cc1cc(C(=O)COC(=O)C2=COCCO2)c(C)n1-c1ccccc1 | active: 13 µM | –
CCCN1C(=O)/C(=C\c2nc3ccccc3c(=O)[nH]2)c2ccccc21 | inconclusive: 8.2 µM [cytotoxic, partial curve] | –

Retrieved one by one from the list above (2):
Compound | Potency | activity change, negative = cytotoxicity
O=C(Nc1cccnc1)C1(c2ccccc2)CCCC1 | inconclusive: 0.0092 µM [rising, full curve, poor fit] | –
O=C(NCc1cccc(Cl)c1)c1ccc2nc(N3CCOCC3)sc2c1 | inconclusive: 0.326 µM [rising, full curve] | –

Next compounds follow:

Compound | Potency | activity change, negative = cytotoxicity
CCc1ccc(NC(=O)C(Cc2ccccc2)NS(=O)(=O)c2ccc3c(c2)c(=O)n(C)c(=O)n3C)cc1 (stereo unspecified) | – | inactive: 16.7%
O=C(CCN1CCC(c2ccccc2)C1)c1ccccc1 (stereo unspecified) | – | inactive: 3.59%
COc1ccccc1C(CCNS(=O)(=O)c1ccc(C)cc1)c1ccco1 (stereo unspecified) | inconclusive: 5.8 µM [rising, full curve, poor fit] | –
CCn1c(SCC(=O)Nc2ccc3c(c2)c2ccccc2n3CC)nnc1-c1ccco1 | – | inactive: -14.3%
Cc1ccccc1NC(=O)C(C)Sc1nnc(CN2CCCC2)n1Cc1ccccc1 (stereo unspecified) | inconclusive: 4.11 µM [cytotoxic, full curve] | –
O=C(Cc1ccccc1)N1CCN(C(=O)c2ccc([N+](=O)[O-])cc2)CC1 | inconclusive: 18.4 µM [cytotoxic, single point] | –
CCc1ccc(N/C(SCc2cccc(F)c2)=C(/C#N)C(=O)NCc2ccco2)cc1 | inconclusive: 20.6 µM [cytotoxic, single point] | –
Cc1ccc(S(=O)(=O)/N=C(\CN2CCOCC2)N2CCCC2)cc1 | inconclusive: 32.6 µM [cytotoxic, single point] | –
Cc1c(NC(=O)C(C)OC(=O)CCC2CCCC2)c(=O)n(-c2ccccc2)n1C (stereo unspecified) | inconclusive: 18.4 µM [rising, single point] | –
Oc1cccc(/C=N\Nc2nncc(-c3ccccc3)n2)c1 | – | inactive: 2.85%
COC(=O)c1[nH]c2ccccc2c1NC(=O)CN1CCN(c2cccc(OC)c2)C(C)C1 (stereo unspecified) | inconclusive: 18.4 µM [cytotoxic, single point] | –
CC1Cc2ccccc2N1C(=O)COC(=O)c1ccc(O)cc1 (stereo unspecified) | inconclusive: 0.0326 µM [rising, full curve] | –
c1ccc2[nH]c(CSc3nc4ccccc4s3)nc2c1 | inconclusive: 18.4 µM [cytotoxic, single point] | –
Cc1cc(=O)oc2cc(NC(=O)c3cc(F)ccc3F)ccc12 | inconclusive: 0.0073 µM [cytotoxic, full curve] | –
O=[N+]([O-])c1cc(-c2nc(-c3ccccc3)no2)ccc1N1CCOCC1 | – | inactive: -3.21%
S=C(Nc1ccc(Cl)cc1Cl)N1CCCC1 | inconclusive: 4.11 µM [rising, full curve] | –
c1cncc(-c2nc(N3CCOCC3)c3ccccc3n2)c1 | inconclusive: 23.1 µM [cytotoxic, single point] | –
COc1ccc2cc(C3CC(c4ccco4)=NN3S(=O)(=O)c3ccccc3)c(Cl)nc2c1 (stereo unspecified) | active: 14.6 µM | –
Cc1ccc([C@H]2C[C@H](n3cc(-c4ccc(F)cc4)nn3)[C@@H](O)CN2CC2CCCCC2)cc1 | inconclusive: 29.1 µM [cytotoxic, single point] | –
CCOC(=O)C[C@H]1c2ccccc2S(=O)(=O)N1c1cccc(OC)c1 | inconclusive: 29.1 µM [cytotoxic, single point] | –
CCOC(=O)C1=C(C)C(c2ccccc2OC)NC(=S)N1 (stereo unspecified) | active: 23.1 µM | –
CC(=O)Nc1cnc(-c2ccccc2O)cn1 | – | inactive: 5.73%
O=C(CCCN1C(=O)/C(=C/c2ccccc2)SC1=S)N1CCOCC1 | inconclusive: 20.6 µM [cytotoxic, single point] | –
